According to article PMC7616682 (Journal of biological inorganic chemistry : JBIC : a …, 2024):
≈ marks a conversion by molar mass, not a printed value.

Tested on: E. faecium ATCC 19434
Assay: MIC broth microdilution assay
Format: cell-based
Conditions: Enterococcus faecium, ATCC19434, 24 h, read-out: MIC E. faecium (Gram positive)
Method: Antibacterial activity assay […]
MIC broth microdilution assay
3 × 125 mL Erlenmeyer flasks, each filled with 12.5 mL MHBII, were inoculated with three different colonies of S. aureus NTCC 12973. 3 × 125 mL Erlenmeyer flasks, each filled with 12.5 mL BHI broth, were inoculated with three different colonies of E. faecium ATCC 19434. The cultures were incubated at 37 °C with shaking at 180 rpm for 16 h.
OD600 of ~2.5. The suspensions of S. aureus cultures were diluted 100-fold with MHBII while the E. faecium cultures were diluted 4-fold. The resultant suspensions were incubated for a further 3 h at 37 °C with shaking. […]
after 3 h. Stock solutions of the title compounds were prepared in the requisite broth from 100 mM stocks in DMSO with the exception of carbenicillin, which was from a 100 mM stock in water and vancomycin from a 10 mM stock in DMSO. 15 × 96 well plates were primed with concentration gradients of the analytes and carbenicillin as shown in Figure S60 for S. aureus. 15 × 96 well plates were primed with the concentration […]
μL per well of the relevant bacterial culture in the requisite broth to 100 μL per well.

Question: `CN[C@H](CC(C)C)C(=O)N[C@H]1C(=O)N[C@@H](CC(N)=O)C(=O)N[C@H]2C(=O)N[C@H]3C(=O)N[C@H](C(=O)N[C@H](C(=O)O)c4cc(O)cc(O)c4-c4cc3ccc4O)[C@H](O)c3ccc(c(Cl)c3)Oc3cc2cc(c3O[C@@H]2O[C@H](CO)[C@@H](O)[C@H](O)[C@H]2O[C@H]2C[C@](C)(N)[C@H](O)[C@H](C)O2)Oc2ccc(cc2Cl)[C@H]1O` [Vancomycin, reference compound] was tested. Which MIC did it give?
Answer: 0.5 µM (≈ 0.725 µg/mL)
